Measurements from the supplement of paper PMC12823440, “Inhibitors supercharge kinase turnover through native proteolytic circuits” (Nature, 2025).
Where a name gives a salt, the structure may show the parent alone. Some of the results follow. The calls rarely recur for the same compound in another form.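 In K562 cells expressing nanoluciferase-fused kinases, luminescence was recorded at 4 h intervals between 2 and 18 h, normalized as percent of control with DMSO at 100% and a positive control at 0%. A significant (2 sigma) signal drop marks a time point as decreased. The authors' rule for a hit is not shown and takes in more than the number of time points.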

Chains of the proteins cited; added tags and fusions are not shown. Lines headed by an entry give the natural chain unless they say otherwise; changes in a name come on top.
UniProt P29317, whole entry: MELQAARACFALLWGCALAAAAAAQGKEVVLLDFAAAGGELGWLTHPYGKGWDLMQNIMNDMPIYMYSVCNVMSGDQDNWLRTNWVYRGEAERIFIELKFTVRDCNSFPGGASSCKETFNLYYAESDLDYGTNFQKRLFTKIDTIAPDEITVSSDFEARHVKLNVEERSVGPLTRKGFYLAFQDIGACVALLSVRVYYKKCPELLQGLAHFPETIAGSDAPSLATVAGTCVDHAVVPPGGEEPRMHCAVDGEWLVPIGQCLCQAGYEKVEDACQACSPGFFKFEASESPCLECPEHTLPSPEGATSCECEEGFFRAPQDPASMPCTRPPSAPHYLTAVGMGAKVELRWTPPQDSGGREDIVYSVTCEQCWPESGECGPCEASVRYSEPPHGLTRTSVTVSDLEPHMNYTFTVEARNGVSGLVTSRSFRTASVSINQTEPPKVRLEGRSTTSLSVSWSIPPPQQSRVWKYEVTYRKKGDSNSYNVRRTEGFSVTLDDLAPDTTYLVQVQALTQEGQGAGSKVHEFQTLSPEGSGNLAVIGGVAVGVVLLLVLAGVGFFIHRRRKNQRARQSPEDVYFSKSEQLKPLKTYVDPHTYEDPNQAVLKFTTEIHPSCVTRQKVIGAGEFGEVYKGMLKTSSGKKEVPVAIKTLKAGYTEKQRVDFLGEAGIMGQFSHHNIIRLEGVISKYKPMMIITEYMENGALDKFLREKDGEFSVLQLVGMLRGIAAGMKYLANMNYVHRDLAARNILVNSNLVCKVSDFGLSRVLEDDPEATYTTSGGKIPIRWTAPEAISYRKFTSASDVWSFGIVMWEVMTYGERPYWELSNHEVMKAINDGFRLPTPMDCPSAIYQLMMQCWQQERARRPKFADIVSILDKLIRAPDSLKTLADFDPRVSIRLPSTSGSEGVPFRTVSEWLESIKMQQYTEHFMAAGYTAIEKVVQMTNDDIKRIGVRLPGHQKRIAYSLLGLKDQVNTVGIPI
UniProt Q15303, whole entry R711C: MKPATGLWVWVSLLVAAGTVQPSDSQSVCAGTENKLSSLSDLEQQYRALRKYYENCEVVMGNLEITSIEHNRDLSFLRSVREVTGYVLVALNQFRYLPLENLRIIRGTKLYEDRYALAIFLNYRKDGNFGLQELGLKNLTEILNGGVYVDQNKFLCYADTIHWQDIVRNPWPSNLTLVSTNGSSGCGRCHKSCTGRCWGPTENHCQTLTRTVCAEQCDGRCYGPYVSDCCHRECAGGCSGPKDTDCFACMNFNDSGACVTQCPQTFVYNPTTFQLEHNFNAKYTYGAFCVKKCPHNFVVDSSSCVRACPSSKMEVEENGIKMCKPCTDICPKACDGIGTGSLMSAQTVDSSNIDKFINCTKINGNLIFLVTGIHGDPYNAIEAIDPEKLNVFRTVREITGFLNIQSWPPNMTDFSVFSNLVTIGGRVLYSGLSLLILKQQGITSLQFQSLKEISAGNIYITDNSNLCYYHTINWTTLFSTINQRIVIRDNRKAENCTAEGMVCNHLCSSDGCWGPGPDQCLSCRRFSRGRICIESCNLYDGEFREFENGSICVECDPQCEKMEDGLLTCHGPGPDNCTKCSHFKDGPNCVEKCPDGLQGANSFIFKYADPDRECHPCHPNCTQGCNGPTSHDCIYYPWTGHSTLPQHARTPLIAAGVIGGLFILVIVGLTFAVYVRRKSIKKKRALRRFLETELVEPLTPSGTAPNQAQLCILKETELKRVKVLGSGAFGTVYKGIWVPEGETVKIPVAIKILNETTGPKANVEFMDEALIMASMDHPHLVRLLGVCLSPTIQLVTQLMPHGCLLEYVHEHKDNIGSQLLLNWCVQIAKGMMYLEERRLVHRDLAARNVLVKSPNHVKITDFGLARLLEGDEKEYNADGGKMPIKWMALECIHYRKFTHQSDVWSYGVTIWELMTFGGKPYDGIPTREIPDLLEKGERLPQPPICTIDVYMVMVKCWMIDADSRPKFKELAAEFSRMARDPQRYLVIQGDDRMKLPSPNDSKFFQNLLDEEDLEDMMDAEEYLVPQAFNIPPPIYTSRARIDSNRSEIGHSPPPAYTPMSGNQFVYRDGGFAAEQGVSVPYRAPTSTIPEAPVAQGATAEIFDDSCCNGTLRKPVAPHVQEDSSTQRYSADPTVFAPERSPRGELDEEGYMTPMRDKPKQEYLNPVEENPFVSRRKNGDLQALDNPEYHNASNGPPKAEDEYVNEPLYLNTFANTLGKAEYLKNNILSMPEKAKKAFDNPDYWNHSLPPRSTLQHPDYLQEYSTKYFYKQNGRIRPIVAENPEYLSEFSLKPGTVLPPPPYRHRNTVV
UniProt O75460: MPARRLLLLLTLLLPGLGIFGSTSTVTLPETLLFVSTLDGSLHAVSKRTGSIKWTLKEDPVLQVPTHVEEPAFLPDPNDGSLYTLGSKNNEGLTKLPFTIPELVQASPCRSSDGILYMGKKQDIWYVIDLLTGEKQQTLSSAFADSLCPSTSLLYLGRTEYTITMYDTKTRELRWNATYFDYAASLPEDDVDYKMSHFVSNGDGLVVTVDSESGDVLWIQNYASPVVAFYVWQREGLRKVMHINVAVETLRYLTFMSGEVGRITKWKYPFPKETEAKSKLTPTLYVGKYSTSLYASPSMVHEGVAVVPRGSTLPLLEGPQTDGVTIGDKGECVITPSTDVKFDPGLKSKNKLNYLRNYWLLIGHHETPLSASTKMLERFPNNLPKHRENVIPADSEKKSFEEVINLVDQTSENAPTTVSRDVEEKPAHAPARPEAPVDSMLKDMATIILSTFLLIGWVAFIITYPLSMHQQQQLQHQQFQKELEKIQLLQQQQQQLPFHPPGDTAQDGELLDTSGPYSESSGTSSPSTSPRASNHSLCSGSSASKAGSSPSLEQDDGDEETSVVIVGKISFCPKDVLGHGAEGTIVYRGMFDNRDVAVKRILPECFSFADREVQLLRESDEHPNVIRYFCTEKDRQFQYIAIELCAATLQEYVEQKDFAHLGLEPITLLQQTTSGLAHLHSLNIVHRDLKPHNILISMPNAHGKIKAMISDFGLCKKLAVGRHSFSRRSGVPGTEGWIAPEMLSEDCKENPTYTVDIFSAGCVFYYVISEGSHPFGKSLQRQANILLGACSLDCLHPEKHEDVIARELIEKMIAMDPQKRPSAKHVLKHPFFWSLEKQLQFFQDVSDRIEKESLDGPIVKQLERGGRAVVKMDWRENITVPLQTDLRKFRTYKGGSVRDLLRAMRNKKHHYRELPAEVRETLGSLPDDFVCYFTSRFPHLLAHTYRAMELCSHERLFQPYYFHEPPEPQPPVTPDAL
UniProt P11362, whole entry, looked up: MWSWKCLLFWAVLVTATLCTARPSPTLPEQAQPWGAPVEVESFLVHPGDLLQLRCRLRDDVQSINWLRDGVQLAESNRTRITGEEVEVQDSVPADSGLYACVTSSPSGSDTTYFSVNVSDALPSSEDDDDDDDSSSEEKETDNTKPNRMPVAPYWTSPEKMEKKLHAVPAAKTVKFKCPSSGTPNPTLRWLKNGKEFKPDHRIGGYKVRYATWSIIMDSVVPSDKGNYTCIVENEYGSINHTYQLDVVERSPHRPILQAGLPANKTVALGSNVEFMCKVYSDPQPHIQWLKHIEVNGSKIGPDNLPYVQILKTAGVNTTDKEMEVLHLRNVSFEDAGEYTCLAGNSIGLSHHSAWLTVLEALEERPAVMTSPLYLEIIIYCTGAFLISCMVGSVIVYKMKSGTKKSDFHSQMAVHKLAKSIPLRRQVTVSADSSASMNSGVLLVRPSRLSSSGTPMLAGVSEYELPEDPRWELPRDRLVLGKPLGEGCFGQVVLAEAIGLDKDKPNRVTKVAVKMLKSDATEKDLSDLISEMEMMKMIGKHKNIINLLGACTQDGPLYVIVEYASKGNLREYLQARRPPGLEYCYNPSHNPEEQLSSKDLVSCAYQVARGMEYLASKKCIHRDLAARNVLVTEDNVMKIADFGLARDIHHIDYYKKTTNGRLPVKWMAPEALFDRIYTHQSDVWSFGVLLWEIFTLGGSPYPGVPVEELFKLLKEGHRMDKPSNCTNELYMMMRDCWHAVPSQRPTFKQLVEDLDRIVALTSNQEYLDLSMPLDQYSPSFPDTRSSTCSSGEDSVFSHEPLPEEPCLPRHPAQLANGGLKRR
UniProt P21802, whole entry, looked up: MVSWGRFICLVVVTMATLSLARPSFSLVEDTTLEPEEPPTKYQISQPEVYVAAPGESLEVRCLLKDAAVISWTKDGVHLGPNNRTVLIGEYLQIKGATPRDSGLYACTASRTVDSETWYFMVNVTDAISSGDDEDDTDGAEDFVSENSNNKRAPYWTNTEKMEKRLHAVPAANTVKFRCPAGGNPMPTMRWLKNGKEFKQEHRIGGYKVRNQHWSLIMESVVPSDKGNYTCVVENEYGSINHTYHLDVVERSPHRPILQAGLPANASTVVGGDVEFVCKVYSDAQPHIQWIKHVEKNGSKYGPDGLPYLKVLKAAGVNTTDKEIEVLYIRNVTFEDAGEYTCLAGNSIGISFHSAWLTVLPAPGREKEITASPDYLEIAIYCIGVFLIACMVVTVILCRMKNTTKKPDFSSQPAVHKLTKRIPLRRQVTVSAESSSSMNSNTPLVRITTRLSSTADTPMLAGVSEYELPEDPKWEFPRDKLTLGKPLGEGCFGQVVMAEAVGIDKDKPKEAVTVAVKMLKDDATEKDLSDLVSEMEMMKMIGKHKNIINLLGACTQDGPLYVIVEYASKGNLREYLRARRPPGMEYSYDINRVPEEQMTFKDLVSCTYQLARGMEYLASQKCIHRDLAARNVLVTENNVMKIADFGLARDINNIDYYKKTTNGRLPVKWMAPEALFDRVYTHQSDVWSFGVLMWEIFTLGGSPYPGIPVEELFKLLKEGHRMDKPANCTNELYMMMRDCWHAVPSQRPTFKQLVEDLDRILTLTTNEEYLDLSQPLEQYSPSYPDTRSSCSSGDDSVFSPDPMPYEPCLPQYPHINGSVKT
UniProt P22607, whole entry, looked up: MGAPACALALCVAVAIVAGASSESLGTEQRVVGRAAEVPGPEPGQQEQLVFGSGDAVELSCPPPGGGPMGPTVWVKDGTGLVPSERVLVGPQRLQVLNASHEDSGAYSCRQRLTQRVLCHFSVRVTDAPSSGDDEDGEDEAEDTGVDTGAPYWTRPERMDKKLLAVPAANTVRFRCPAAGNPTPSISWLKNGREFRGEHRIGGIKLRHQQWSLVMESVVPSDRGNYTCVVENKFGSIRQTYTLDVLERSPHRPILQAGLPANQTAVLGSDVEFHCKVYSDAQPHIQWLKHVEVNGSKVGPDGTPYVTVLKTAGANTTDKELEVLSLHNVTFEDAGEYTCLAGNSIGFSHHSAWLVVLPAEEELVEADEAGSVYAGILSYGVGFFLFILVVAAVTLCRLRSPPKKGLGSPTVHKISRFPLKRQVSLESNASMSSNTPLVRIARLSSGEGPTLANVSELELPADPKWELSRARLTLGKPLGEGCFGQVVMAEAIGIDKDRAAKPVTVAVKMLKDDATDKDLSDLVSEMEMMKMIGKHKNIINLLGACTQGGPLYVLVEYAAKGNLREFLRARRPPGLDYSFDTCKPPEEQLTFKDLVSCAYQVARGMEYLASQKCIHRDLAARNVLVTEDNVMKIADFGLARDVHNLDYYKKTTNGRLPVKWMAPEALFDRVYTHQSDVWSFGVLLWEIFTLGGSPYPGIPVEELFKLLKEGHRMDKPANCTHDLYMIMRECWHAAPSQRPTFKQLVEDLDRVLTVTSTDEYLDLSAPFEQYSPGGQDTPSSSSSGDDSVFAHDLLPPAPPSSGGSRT

Columns and labels:
Assay in all cases: number of time points (of 5) at which kinase-Nluc abundance scored as decreased, DMSO-normalised (count); higher = more persistent destabilization
Conditions in all cases: K562; 2-18 h
[1] = target: EGFR_L861Q (UniProt P00533)
[2] = target: EGFR_T790M (UniProt P00533)
[3] = target: EPHA2 (UniProt P29317)
[4] = target: ERBB3 (UniProt P21860)
[5] = target: ERBB4_R711C (clone: ERBB4_mut) (UniProt Q15303)
[6] = target: ERN1 (UniProt O75460)
[7] = target: FGFR1 (UniProt P11362)
[8] = target: FGFR2 (UniProt P21802)
[9] = target: FGFR3 (UniProt P22607)
[10] = target: FGR (UniProt P09769)

Structure (SMILES) | number of time points [1] | number of time points [2] | number of time points [3] | number of time points [4] | number of time points [5] | number of time points [6] | number of time points [7] | number of time points [8] | number of time points [9] | number of time points [10]
Cc1cc(-c2cc(OC(=O)c3ccccc3)ccc2Cl)cc2nnc(Nc3ccc(OCCN4CCCC4)cc3)nc12 (0.5 µM) | 0 | 0 | 0 | 0 | 0 | 0 | 0 | 0 | 0 | 0
C=CC(=O)Nc1cc2c(Nc3ccc(OCc4ccccn4)c(Cl)c3)ncnc2cc1OCCN1CCOCC1 (10 µM) | 0 | 0 | 0 | 1 | 1 | 0 | 0 | 0 | 0 | 0
CN1CCN(c2ccc(C(=O)Nc3cc(-c4cccc(NS(=O)(=O)c5ccccc5)c4)[nH]n3)cc2)CC1 [BPR1J-097 Hydrochloride] (2.5 µM) | 0 | 0 | 0 | 0 | 0 | 0 | 0 | 0 | 0 | 0
CN(CC(=O)N(Cc1ccc(C2CCCCC2)cc1)c1ccc(C(=O)O)cc1)S(=O)(=O)c1c(F)c(F)c(F)c(F)c1F (2.5 µM) | 0 | 0 | 0 | 0 | 0 | 0 | 0 | 0 | 0 | 0
O=c1oc2cc(O)ccc2c2ccccc12 [Urolithin B] (10 µM) | 0 | 0 | 0 | 0 | 0 | 0 | 0 | 0 | 0 | 0
O=C(NCCCNc1nc(Nc2cccc(NC(=O)N3CCCC3)c2)ncc1I)c1cccs1 (2.5 µM) | 0 | 0 | 0 | 0 | 1 | 0 | 0 | 0 | 0 | 0
CC(C)(NS(=O)(=O)c1ccc2c(Cl)cnc(N=C(N)N)c2c1)C(=O)O (10 µM) | 0 | 0 | 0 | 0 | 0 | 0 | 0 | 0 | 0 | 0
N#Cc1cccc(-c2c[nH]c3ncnc(N4CCOCC4)c23)c1 (10 µM) | 0 | 0 | 0 | 0 | 0 | 0 | 0 | 0 | 0 | 0
CN(CCNc1ccc2ncc(-c3ccc(C(N)=O)cc3)n2n1)C(=O)OC(C)(C)C (10 µM) | 0 | 0 | 0 | 0 | 0 | 0 | 0 | 0 | 0 | 0
COc1cc2c[n+](C)c3c4cc5c(cc4ccc3c2cc1OC)OCO5 [Nitidine (chloride)] (2 µM) | 0 | 0 | 0 | 0 | 0 | 0 | 0 | 0 | 0 | 0
COc1c(NC(=O)C(=O)c2ccc(OCCN3CCOCC3)c3ccccc23)cc(C(C)(C)C)cc1NS(C)(=O)=O (2.5 µM) | 0 | 0 | 0 | 0 | 0 | 0 | 0 | 0 | 0 | 0
CC(=O)c1c(C)c2cnc(Nc3ccc(N4CCN(CCCCNC(=O)COc5cccc6c5C(=O)N(C5CCC(=O)NC5=O)C6=O)CC4)cn3)nc2n(C2CCCC2)c1=O (stereo not given) (10 µM) | 0 | 0 | 0 | 0 | 0 | 0 | 0 | 0 | 0 | 0
Cn1c(=O)c(F)c(Nc2ccc(I)cc2F)c2c(=O)n(C[C@@H](O)CO)cnc21 (10 µM) | 0 | 0 | 0 | 1 | 1 | 0 | 0 | 2 | 0 | 0
C[C@@H]1C(=O)O[C@H](C)[C@H]1C[C@@H](O)[C@](C)(O)[C@H]1CC[C@@]2(O)C3=CC(=O)[C@@H]4C[C@@H](O)[C@@H](O)C[C@]4(C)[C@H]3CC[C@]12C [Cyasterone] (10 µM) | 0 | 0 | 0 | 0 | 0 | 0 | 0 | 0 | 0 | 0
N[C@H](Cc1c[nH]c2ccccc12)C(=O)N/N=C/c1ccc2nccnc2c1 [Rhosin (hydrochloride)] (10 µM) | 0 | 0 | 0 | 0 | 0 | 0 | 0 | 0 | 0 | 0
Cc1cc([C@H](C)Nc2ccccc2)c2oc(N3CCOCC3)cc(=O)c2c1 (10 µM) | 0 | 0 | 0 | 0 | 0 | 0 | 0 | 0 | 0 | 0
COc1cccc(-n2c(=O)[nH]c3cc(Cl)n(-c4ccc(-c5cccc(OC)c5O)cc4)c3c2=O)c1 (2.5 µM) | 0 | 0 | 0 | 0 | 0 | 0 | 0 | 0 | 0 | 0

In a second layout: 6 of the compounds above
Structure (SMILES)	number of time points [1]	number of time points [2]	number of time points [3]	number of time points [4]	number of time points [5]	number of time points [6]	number of time points [7]	number of time points [8]	number of time points [9]	number of time points [10]
Cc1cc(-c2cc(OC(=O)c3ccccc3)ccc2Cl)cc2nnc(Nc3ccc(OCCN4CCCC4)cc3)nc12 (0.5 µM)	0	0	0	0	0	0	0	0	0	0
C=CC(=O)Nc1cc2c(Nc3ccc(OCc4ccccn4)c(Cl)c3)ncnc2cc1OCCN1CCOCC1 (10 µM)	0	0	0	1	1	0	0	0	0	0
CN1CCN(c2ccc(C(=O)Nc3cc(-c4cccc(NS(=O)(=O)c5ccccc5)c4)[nH]n3)cc2)CC1 [BPR1J-097 Hydrochloride] (2.5 µM)	0	0	0	0	0	0	0	0	0	0
CN(CC(=O)N(Cc1ccc(C2CCCCC2)cc1)c1ccc(C(=O)O)cc1)S(=O)(=O)c1c(F)c(F)c(F)c(F)c1F (2.5 µM)	0	0	0	0	0	0	0	0	0	0
O=c1oc2cc(O)ccc2c2ccccc12 [Urolithin B] (10 µM)	0	0	0	0	0	0	0	0	0	0
O=C(NCCCNc1nc(Nc2cccc(NC(=O)N3CCCC3)c2)ncc1I)c1cccs1 (2.5 µM)	0	0	0	0	1	0	0	0	0	0

(further entries)

Structure (SMILES) | number of time points [1] | number of time points [2] | number of time points [3] | number of time points [4] | number of time points [5] | number of time points [6] | number of time points [7] | number of time points [8] | number of time points [9] | number of time points [10]
COc1ccc(CC(=O)Nc2nc3c(s2)CCc2ccccc2-3)cc1OC (10 µM) | 0 | 0 | 0 | 0 | 0 | 0 | 0 | 0 | 0 | 0
Cc1ccc(-c2c(C(=O)CCl)n(CCCO)c3ncnc(N)c23)cc1 (10 µM) | 2 | 0 | 0 | 2 | 3 | 0 | 2 | 3 | 0 | 0
CC(C)=CCC[C@](C)(O[C@@H]1O[C@H](CO)[C@@H](O)[C@H](O)[C@H]1O)[C@H]1CC[C@]2(C)[C@@H]1[C@H](O)C[C@@H]1[C@@]3(C)CC[C@H](O)C(C)(C)[C@@H]3[C@@H](O[C@@H]3O[C@H](CO)[C@@H](O)[C@H](O)[C@H]3O[C@@H]3O[C@@H](C)[C@H](O)[C@@H](O)[C@H]3O)C[C@]12C [Ginsenoside Re] (10 µM) | 0 | 0 | 0 | 0 | 0 | 0 | 0 | 0 | 0 | 0
CC(=O)N1CCN(c2cc(-c3cc(C(F)(F)F)c4c(N)ncnn34)ccc2C#N)C(=O)C1(C)C (10 µM) | 0 | 0 | 0 | 0 | 0 | 0 | 0 | 0 | 0 | 0
O=C(/C=C/c1ccc(O[C@@H]2O[C@H](CO)[C@@H](O)[C@H](O)[C@H]2O[C@@H]2OC[C@](O)(CO)[C@H]2O)cc1)c1ccc(O)cc1O [Isoliquiritin apioside] (10 µM) | 0 | 0 | 0 | 0 | 0 | 0 | 0 | 0 | 0 | 0
Cc1csc(-c2nnc(Nc3ccc(Oc4ncccc4-c4ccnc(N)n4)cc3)c3ccccc23)c1 (2.5 µM) | 0 | 0 | 0 | 2 | 1 | 0 | 0 | 0 | 0 | 0
Cn1nccc1Nc1nccc(-c2cc3c(s2)C(C)(C)N(CCN2CCOCC2)C3=O)n1 (10 µM) | 0 | 0 | 0 | 0 | 0 | 0 | 0 | 0 | 0 | 0
Cc1ccc2nc(NC(=O)CSc3nc4c(c(=O)n3-c3ccccc3)SCC4)sc2c1 (2 µM) | 0 | 0 | 0 | 0 | 0 | 0 | 0 | 0 | 0 | 0
Cc1ccc(Nc2cc(-c3cccc(N4C(=O)c5ccccc5C4=O)c3)ncn2)cc1NS(C)(=O)=O (10 µM) | 0 | 0 | 2 | 0 | 1 | 0 | 0 | 0 | 0 | 0
CCN(CC)S(=O)(=O)c1ccc(OC)c(N2CCN(C(=O)c3ccc(F)cc3C(F)(F)F)CC2)c1 (10 µM) | 0 | 0 | 0 | 0 | 0 | 0 | 0 | 0 | 0 | 0
CCn1c(=O)c(-c2ccc(-c3cncc(C)n3)cc2Cl)cc2cnc(NCCC3CCN(C)CC3)nc21 (10 µM) | 0 | 0 | 0 | 0 | 0 | 0 | 0 | 0 | 0 | 0
Cc1c(NC(=O)OC[C@@H]2COCCN2)cn2ncnc(Nc3ccc4c(cnn4Cc4cccc(F)c4)c3)c12 (10 µM) | 0 | 0 | 0 | 0 | 0 | 0 | 0 | 0 | 0 | 0
O=C(Nc1ccc(F)cc1F)[C@H](NC(=S)Nc1cc(C(F)(F)F)cc(C(F)(F)F)c1)c1ccccc1 (2.5 µM) | 0 | 0 | 0 | 0 | 0 | 0 | 0 | 0 | 0 | 0
CS(=O)(=O)c1ccc(-c2cnc(N)c(C(=O)Nc3ccccc3)n2)cc1 (10 µM) | 0 | 0 | 0 | 0 | 0 | 0 | 0 | 0 | 0 | 0
COc1cc(C(N)=O)nc(-c2cccc(C#C[C@]3(O)CCN(C)C3=O)c2)c1 (10 µM) | 0 | 0 | 0 | 0 | 0 | 0 | 0 | 0 | 0 | 0
CC(=NNC(=O)c1ccc(C)c(Br)c1)c1ccc(O)cc1O [mTOR inhibitor-1] (2.5 µM) | 0 | 0 | 0 | 0 | 0 | 0 | 0 | 0 | 0 | 0
